Reference: PubChem BioAssay AID2685 (National Center for Advancing Translational Sciences (NCATS), 2010)
The other results are listed elsewhere or left out. These are further read-outs of the screen, such as a control signal, another cell line or another target. No call is given for them. Most of these compounds were active or inconclusive in the main read-out, so they are no random draw. Potencies come from curve fits of mixed quality, noted in brackets.

Assay: qHTS Assay for Lipid Storage Modulators in Drosophila S3 Cells;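 on cell number change: cells counted by Cell Tracker Red CMTPX staining in the red channel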
Settings: BODIPY lipid droplet fluorescence, 18-24 h; for cell number change: measured here: cell count max response, cells fed with added oleic acid
In short: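 Drosophila S3 cells got compounds at several concentrations plus oleic acid (400 uM solution). Laser-scanning cytometry with 488 nm excitation read lipid droplets at 500-530 nm and cells at 575-640 nm. Percent activity was relative to 20 uM Triacsin C.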

[1] = measured here: lipid fluorescence (Fed channel) AC50, cells fed with added oleic acid
[2] = measured here: cell number channel AC50, cells fed with added oleic acid

Row | Structure (SMILES) | AC50 [1] | AC50 [2] | cell number change [%]
1 | COc1ccc(C2=NN(C(=O)CN3CCCCC3)C(c3ccc(C)cc3)C2)cc1 (configuration not stated) | 6.51 µM [rising, single point] | – | –
2 | Cc1cccc(C(=O)NCC(=O)NC(C)c2ccc(-n3ccnc3)cc2)c1 (configuration not stated) | 0.326 µM [rising, partial curve, poor fit] | 0.82 µM [rising, partial curve] | –
3 | CCN1CCc2c(sc(NC(=O)c3ccc(S(=O)(=O)N4CCOCC4)cc3)c2C(N)=O)C1 | – | 6.51 µM [falling, single point] | –
4 | CCc1ccc(C2N(c3ccc(OC)cc3)C(=O)C3CCCN32)cc1 (configuration not stated) | – | 6.51 µM [rising, single point] | 38.3
5 | CC(C(=O)Nc1ccc(Cl)cc1Cl)N1C(=O)NC2(CCCCCCC2)C1=O (configuration not stated) | 25.9 µM [falling, single point] | 0.058 µM [falling, full curve, poor fit] | -31.8
6 | Cc1cc([N+](=O)[O-])c(C(C)(C)C)cc1N | – | 20.6 µM [rising, single point] | 33.4
7 | O=C(CCSc1nc(-c2ccco2)cc(C(F)(F)F)n1)N1CCN(c2ccccn2)CC1 | 0.92 µM [rising, partial curve, poor fit] | – | -13.2
8 | Cc1cccc(-n2nc3c(c2NC(=O)C(C)C)CSC3)c1 | 29.1 µM [rising, single point] | 0.116 µM [rising, full curve, poor fit] | 31.5
9 | CCOc1cc(/C=N/NC(=O)c2cccnc2)cc(Br)c1OCC(N)=O | – | – | -55.4
10 | CC(C)c1ccc(NC2CCCN(C(=O)C3=NN(C)C(=O)CC3)C2)cc1 (configuration not stated) | 0.517 µM [falling, full curve, poor fit] | – | 1.18
11 | COc1ccc(-n2nc(C(=O)N3CCCCC3)c(C)c(C#N)c2=O)cc1 | – | – | 15
12 | Cc1cc2ncn(C(=O)c3c(-c4ccccc4Cl)noc3C)c2cc1C | – | 29.1 µM [falling, single point] | -34.1
13 | c1ccc(-n2nnnc2NCCc2c[nH]c3ccccc23)cc1 | – | – | -11.4
14 | COc1ccc(Nc2nc(OC)nc(N3CCN(c4ccc(OC)cc4)CC3)n2)cc1 | 1.64 µM [rising, partial curve] | 1.3 µM [rising, partial curve] | –
15 | CCCn1c(=O)c(C(=O)NNS(=O)(=O)c2ccc(NC(=O)OC)cc2)c(O)c2ccccc21 | 29.1 µM [rising, single point] | – | 23
16 | CCOc1ccc(NC(=O)c2nnn(CC(=O)Nc3ccccc3OC)c2N)cc1 | – | – | -23
17 | c1ccc(SCc2nc(-c3ccncc3)n[nH]2)nc1 | 29.1 µM [falling, single point] | 29.1 µM [falling, single point] | -30.8
18 | CC1CCN(C(=O)COC(=O)c2cccc(S(=O)(=O)N(C)c3ccccc3)c2)CC1 | 0.0058 µM [rising, full curve, poor fit] | – | 0.352
19 | CN(C(=O)c1ccc(NC(=O)Cc2ccc(NC(=O)C3CCCN(C(=O)CCc4ccccc4)C3)cc2)cc1)C1CC1 (configuration not stated) | 6.51 µM [falling, single point] | 18.4 µM [falling, partial curve, poor fit] | -43.7
20 | CCN(CC)C(=O)C(Cc1ccccc1)N1C(=O)c2ccccc2C1=O (configuration not stated) | 6.51 µM [falling, single point] | – | –

Gathered by group, the entries above with an aryl methoxy group.
Row | Structure (SMILES) | AC50 [1] | AC50 [2] | cell number change [%]
1 | COc1ccc(C2=NN(C(=O)CN3CCCCC3)C(c3ccc(C)cc3)C2)cc1 (configuration not stated) | 6.51 µM [rising, single point] | – | –
4 | CCc1ccc(C2N(c3ccc(OC)cc3)C(=O)C3CCCN32)cc1 (configuration not stated) | – | 6.51 µM [rising, single point] | 38.3
11 | COc1ccc(-n2nc(C(=O)N3CCCCC3)c(C)c(C#N)c2=O)cc1 | – | – | 15
14 | COc1ccc(Nc2nc(OC)nc(N3CCN(c4ccc(OC)cc4)CC3)n2)cc1 | 1.64 µM [rising, partial curve] | 1.3 µM [rising, partial curve] | –
16 | CCOc1ccc(NC(=O)c2nnn(CC(=O)Nc3ccccc3OC)c2N)cc1 | – | – | -23

Following part:

Row | Structure (SMILES) | AC50 [1] | AC50 [2] | cell number change [%]
21 | Cc1cccc(OCC(=O)Nc2ccc(C(=O)Nc3ccccc3C(=O)O)cc2)c1C | 2.31 µM [rising, single point] | – | -6.03
22 | CCN(CC)S(=O)(=O)C1CCS(=O)(=O)C1 (configuration not stated) | 25.9 µM [falling, partial curve] | – | -2.87
23 | CCOc1ccc2nc(NC(=O)CC3Oc4ccccc4NC3=O)sc2c1 (configuration not stated) | 0.206 µM [rising, full curve] | – | 11.7
24 | CC1=C(C(=O)Nc2ccccc2)C(c2sccc2C)n2nnnc2N1 (configuration not stated) | – | 6.51 µM [rising, partial curve, poor fit] | –
25 | COC(=O)c1ccc(N2C(=O)CC(N3CCN(C(=O)c4ccco4)CC3)C2=O)cc1 (configuration not stated) | 29.1 µM [falling, partial curve] | – | 9.59
26 | O=C(O)CSc1nnc(-c2ccc(Cl)cc2)n1-c1ccccc1 | – | – | -1.92
27 | C/C(=N\N=C(N)N)c1ccc(Cl)cc1 | 6.51 µM [falling, single point] | – | -6.2
28 | Cc1ccccc1C(=O)N1CCC(C(=O)NCCc2ccc(S(N)(=O)=O)cc2)CC1 | – | – | 10.9
29 | CCOc1ccc(CC(=O)NNC(=S)Nc2ccccc2)cc1Br | 0.58 µM [rising, single point] | 0.103 µM [rising, full curve, poor fit] | 14.4
30 | O=C(c1coc(=O)c(Br)c1)N1CCOCC1 | 23.1 µM [falling, partial curve] | 25.9 µM [falling, partial curve] | -107
31 | CCCCc1nc(N2CCN(C(=O)c3ccco3)CC2)c(C#N)c2c1CCCC2 | 6.51 µM [rising, single point] | – | 4.72
32 | CCOC(=O)C1CCN(C/C=C/c2ccccc2OC)CC1 | 0.00461 µM [falling, full curve, poor fit] | – | -12.3
33 | O=C(Cn1cncn1)NCCCc1ccccc1 | 0.0731 µM [falling, full curve, poor fit] | 0.116 µM [falling, full curve, poor fit] | -8.61
34 | O=C1c2ccccc2C(=O)N1CCCc1nc(-c2ccc(Cl)cc2)no1 | – | – | 2.34
35 | COc1cc(OC)cc(C(=O)NCC(=O)NC(C)c2ccccc2)c1 (configuration not stated) | – | – | -2.78
36 | O=C(Nc1ccccc1Cl)c1cccs1 | – | – | -22.5
37 | Cc1cc(OC(C)C(=O)NCCCN2CCOCC2)ccc1Cl (configuration not stated) | 1.03 µM [falling, full curve, poor fit] | – | -17.9
38 | O=C(CN1C(=O)CC(c2ccccc2)=Nc2ccccc21)NCc1ccccc1 | 29.1 µM [falling, single point] | – | -21
39 | Cc1cccc(NC(=O)c2c(F)c(F)c(F)c(F)c2F)c1 | 0.731 µM [falling, single point] | – | 11.7
